In article PMC7038928:
Like-named read-outs stand apart in the source and are kept apart here. No constants are given. Whether binding was seen depends on the method and setting. In cells and extracts the contact can be indirect. Some binding calls cover weakened binding; strength is not graded here.

Sequences of proteins named here, by UniProt entry; tags and fusion partners are left off.
UniProt Q86U44: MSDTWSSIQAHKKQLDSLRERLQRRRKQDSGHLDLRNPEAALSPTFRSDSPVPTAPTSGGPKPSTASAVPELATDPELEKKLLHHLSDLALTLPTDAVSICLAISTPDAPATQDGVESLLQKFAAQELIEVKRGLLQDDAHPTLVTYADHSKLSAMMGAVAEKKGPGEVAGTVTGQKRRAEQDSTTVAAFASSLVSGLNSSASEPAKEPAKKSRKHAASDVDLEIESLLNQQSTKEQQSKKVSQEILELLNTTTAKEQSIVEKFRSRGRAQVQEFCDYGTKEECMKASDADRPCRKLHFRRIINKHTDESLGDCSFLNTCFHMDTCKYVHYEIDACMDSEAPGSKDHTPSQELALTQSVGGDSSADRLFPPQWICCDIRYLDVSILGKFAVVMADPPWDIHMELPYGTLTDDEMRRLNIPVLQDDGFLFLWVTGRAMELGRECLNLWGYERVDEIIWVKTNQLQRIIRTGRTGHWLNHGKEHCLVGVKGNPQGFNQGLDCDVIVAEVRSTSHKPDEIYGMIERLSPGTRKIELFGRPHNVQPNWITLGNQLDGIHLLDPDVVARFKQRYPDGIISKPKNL

Tests used:
Test in all cases: co-IP; Flag-tagged RBP precipitated with FLAG beads from sonicated RIPA lysate, overnight at 4°C; washed three times in E1A lysis buffer (250 mM NaCl, 50 mM HEPES pH 7.5, 0.1% NP-40, 5 mM EDTA); blots for METTL3, METTL14, FTO, ALKBH5; with and without RNase treatment (TRA2A, CAPRIN1)
[1] = target: T1, TRA2A (human (cDNA from HEK293T)) (UniProt Q13595)
T1 sequence: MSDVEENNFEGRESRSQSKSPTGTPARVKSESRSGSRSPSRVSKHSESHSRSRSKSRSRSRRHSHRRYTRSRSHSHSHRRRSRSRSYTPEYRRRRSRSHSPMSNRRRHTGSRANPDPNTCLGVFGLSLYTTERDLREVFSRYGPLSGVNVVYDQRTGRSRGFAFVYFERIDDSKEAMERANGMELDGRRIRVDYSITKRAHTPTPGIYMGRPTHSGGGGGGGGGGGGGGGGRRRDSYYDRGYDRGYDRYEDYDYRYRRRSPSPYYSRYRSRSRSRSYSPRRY

[2] = target: T2, CAPRIN1 (human (cDNA from HEK293T)) (UniProt Q14444)
T2 sequence: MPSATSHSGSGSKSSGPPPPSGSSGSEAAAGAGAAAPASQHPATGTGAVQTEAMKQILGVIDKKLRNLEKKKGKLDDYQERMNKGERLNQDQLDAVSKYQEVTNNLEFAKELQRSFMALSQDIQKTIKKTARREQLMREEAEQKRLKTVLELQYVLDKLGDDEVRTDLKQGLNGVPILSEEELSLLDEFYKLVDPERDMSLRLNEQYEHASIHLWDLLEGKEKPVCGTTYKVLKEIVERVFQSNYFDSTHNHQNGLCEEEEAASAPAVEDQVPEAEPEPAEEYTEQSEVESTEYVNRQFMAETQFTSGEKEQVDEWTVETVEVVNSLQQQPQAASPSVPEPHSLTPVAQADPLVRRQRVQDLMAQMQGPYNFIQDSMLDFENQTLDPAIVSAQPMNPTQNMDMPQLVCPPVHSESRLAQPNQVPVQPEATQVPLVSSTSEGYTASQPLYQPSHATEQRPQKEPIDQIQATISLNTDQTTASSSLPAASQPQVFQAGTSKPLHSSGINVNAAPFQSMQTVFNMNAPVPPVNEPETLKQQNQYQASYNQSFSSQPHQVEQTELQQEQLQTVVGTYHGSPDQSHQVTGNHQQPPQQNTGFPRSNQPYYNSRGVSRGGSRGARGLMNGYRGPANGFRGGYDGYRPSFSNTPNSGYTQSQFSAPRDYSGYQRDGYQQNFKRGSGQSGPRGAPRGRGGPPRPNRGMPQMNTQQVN

[3] = target: T2, CAPRIN1 (human (cDNA from HEK293T)); remark: listed apart in the source

Molecule | binding [1] | binding [2] | binding [3]
METTL3 (from UniProt Q86U44 1-580) | binds | binds | 
METTL14 (protein, UniProt Q9HCE5 1-456) MDSRLQEIRERQKLRRQLLAQQLGAESADSIGAVLNSKDEQREIAETRETCRASYDTSAPNAKRKYLDEGETDEDKMEEYKDELEMQQDEENLPYEEEIYKDSSTFLKGTQSLNPHNDYCQHFVDTGHRPQNFIRDVGLADRFEEYPKLRELIRLKDELIAKSNTPPMYLQADIEAFDIRELTPKFDVILLEPPLEEYYRETGITANEKCWTWDDIMKLEIDEIAAPRSFIFLWCGSGEGLDLGRVCLRKWGYRRCEDICWIKTNKNNPGKTKTLDPKAVFQRTKEHCLMGIKGTVKRSTDGDFIHANVDIDLIITEEPEIGNIEKPVEIFHIIEHFCLGRRRLHLFGRDSTIRPGWLTVGPTLTNSNYNAETYASYFSAPNSYLTGCTEEIERLRPKSPPPKSKSDRGGGAPRGGGRGGTSAGRGRERNRSNFRGERGGFRGGRGGAHRGGFPPR |  |  | binds
